Here are results for 2 substances from article PMC8581416.

Chains of the proteins cited; added tags and fusions are not shown.
UniProt Q8VEK3: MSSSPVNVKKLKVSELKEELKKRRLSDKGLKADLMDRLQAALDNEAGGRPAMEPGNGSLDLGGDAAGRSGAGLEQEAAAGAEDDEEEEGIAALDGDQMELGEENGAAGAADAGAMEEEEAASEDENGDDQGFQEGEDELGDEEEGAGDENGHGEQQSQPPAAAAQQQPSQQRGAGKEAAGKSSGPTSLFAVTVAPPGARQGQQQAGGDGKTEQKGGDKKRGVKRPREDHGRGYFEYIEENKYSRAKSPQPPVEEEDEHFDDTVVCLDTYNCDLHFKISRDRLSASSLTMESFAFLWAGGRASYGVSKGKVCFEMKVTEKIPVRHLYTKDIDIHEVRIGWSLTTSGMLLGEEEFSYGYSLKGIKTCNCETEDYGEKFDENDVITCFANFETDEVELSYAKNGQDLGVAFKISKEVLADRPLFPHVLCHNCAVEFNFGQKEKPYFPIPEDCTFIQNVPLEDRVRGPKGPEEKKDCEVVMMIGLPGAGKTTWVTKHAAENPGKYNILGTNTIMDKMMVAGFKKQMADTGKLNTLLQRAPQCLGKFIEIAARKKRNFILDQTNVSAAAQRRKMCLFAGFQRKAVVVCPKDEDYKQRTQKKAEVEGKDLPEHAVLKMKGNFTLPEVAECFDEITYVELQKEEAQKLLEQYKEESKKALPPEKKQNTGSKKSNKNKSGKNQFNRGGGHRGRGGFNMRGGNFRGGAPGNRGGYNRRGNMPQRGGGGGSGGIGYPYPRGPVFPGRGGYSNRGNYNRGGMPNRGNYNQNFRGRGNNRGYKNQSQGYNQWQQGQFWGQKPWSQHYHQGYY
UniProt P22561: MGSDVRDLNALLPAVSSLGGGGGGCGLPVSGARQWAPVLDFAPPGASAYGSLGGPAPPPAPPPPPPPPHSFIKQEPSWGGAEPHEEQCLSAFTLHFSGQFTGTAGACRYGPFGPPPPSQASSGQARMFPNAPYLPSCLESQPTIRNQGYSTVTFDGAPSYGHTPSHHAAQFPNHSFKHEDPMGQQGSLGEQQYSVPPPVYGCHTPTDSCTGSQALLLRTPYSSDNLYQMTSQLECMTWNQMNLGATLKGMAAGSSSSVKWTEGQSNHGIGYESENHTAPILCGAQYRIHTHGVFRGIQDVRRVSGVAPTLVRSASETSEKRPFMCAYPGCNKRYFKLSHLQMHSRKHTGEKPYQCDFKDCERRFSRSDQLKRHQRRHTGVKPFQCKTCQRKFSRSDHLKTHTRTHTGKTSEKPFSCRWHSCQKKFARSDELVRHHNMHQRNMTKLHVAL

Test [1] has as its target hnRNPU (mouse (endogenous in testis)) (UniProt Q8VEK3). Kind of test: co-IP; immunoprecipitation of hnRNPU in isolated mouse Sertoli cells at P3, western blot of Pol II, hnRNPU, SOX9, WT1 and SOX8; called RNA-independent. In general terms: Immunoblotting shows a protein as a band on a membrane.
For test [2] the target is unchanged. Kind of test: co-IP; lysates of mouse testes at postnatal day 3 immunoprecipitated with anti-hnRNPU and anti-WT1 antibodies, respectively; western blot with the reciprocal antibody; lysis buffer 20 mM HEPES, 150 mM NaCl, 2 mM magnesium acetate, 0.2% NP-40, 1 mM DTT, pH 7.3; 4 °C overnight.
Test [3] addresses Wilms' tumor 1 (WT1) (mouse (endogenous in testis)) (UniProt P22561). The test is described as above.

These are yes or no findings as the source states them, for the method shown. In cells and extracts the contact can be indirect. Some entries that bind do so weakly or less than the wild type.

For “Wilms' tumor 1 (WT1) (from UniProt P22561 1-449)”, the binding result in test [1] and in test [2] was “binds” in each case.

Consider hnRNPU (from UniProt Q8VEK3 1-800), for which the binding result in test [3] is recorded as “binds”.
